Data: PMC7616709 (Molecular cell, 2024)
Results are given in words; binding and its absence hold for the method and conditions named. Some binding calls cover weakened binding; strength is not graded here.

Protein sequences, listed by entry. Tags and fused reporters are not part of them.
UniProt Q9NWU2: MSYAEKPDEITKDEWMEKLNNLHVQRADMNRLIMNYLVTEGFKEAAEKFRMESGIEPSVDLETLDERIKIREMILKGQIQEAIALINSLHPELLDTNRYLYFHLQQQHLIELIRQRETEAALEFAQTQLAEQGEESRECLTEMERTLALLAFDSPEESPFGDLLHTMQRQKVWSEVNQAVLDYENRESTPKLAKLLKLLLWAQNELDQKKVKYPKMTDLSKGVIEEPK
UniProt Q9H871: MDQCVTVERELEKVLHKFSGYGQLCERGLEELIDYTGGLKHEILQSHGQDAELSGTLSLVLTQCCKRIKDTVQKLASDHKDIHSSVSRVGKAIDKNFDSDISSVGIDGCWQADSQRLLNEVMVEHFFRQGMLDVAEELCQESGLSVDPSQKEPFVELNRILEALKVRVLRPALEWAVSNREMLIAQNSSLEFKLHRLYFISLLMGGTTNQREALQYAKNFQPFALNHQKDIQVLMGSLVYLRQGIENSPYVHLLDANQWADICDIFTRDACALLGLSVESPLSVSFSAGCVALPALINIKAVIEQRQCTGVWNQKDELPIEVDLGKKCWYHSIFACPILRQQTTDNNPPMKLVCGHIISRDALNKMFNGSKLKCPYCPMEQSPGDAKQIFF
UniProt Q8IUR7: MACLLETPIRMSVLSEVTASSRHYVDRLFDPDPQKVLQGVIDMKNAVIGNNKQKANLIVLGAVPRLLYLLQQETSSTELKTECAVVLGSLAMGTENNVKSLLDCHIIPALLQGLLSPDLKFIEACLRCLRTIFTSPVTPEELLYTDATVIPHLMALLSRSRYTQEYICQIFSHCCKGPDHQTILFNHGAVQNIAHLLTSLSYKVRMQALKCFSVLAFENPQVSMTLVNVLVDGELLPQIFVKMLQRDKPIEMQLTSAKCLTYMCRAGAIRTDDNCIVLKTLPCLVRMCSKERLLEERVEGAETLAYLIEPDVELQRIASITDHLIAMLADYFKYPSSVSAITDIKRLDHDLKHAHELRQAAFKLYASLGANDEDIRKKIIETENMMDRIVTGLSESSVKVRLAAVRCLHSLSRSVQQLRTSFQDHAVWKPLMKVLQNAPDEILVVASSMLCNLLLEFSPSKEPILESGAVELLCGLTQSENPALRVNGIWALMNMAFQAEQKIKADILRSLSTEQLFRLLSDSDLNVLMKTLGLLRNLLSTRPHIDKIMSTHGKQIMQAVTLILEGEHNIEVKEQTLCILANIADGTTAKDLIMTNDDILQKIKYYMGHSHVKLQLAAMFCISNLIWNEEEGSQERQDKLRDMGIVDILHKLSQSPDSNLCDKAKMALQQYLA

molecular target: TWA1^2xS (TWA1 C-terminally tagged with 2xStrep) (human) (UniProt Q9NWU2); experiment: co-purification (Strep-Tactin affinity chromatography, SEC); CTLH subunits co-expressed in High Five insect cells; complexes purified from lysates by the C-terminal 2xStrep tag of TWA1, then SEC on Superose 6; Coomassie-stained SDS-PAGE

binding	Molecule
binds	RMND5A (subunit of the recombinant CTLH E3 complexes) (from UniProt Q9H871 1-391)
binds	ARMC8α (subunit of the recombinant CTLH E3 complexes) (from UniProt Q8IUR7 1-673)
binds	WDR26 (subunit of the recombinant WDR26-CTLH E3) (natural protein, human, UniProt Q9H7D7 1-661, looked up, WDR26, human, from human cDNA library (pFLN WDR26); The models 8QE8 and 8QBN exclude the CTLH-CRA^N domain of WDR26; also called WDR26 dimer) MQANGAGGGGGGGGGGGGGGGGGGGQGQTPELACLSAQNGESSPSSSSSAGDLAHANGLLPSAPSAASNNSNSLNVNNGVPGGAAAASSATVAAASATTAASSSLATPELGSSLKKKKRLSQSDEDVIRLIGQHLNGLGLNQTVDLLMQESGCRLEHPSATKFRNHVMEGDWDKAENDLNELKPLVHSPHAIVVRGALEISQTLLGIIVRMKFLLLQQKYLEYLEDGKVLEALQVLRCELTPLKYNTERIHVLSGYLMCSHAEDLRAKAEWEGKGTASRSKLLDKLQTYLPPSVMLPPRRLQTLLRQAVELQRDRCLYHNTKLDNNLDSVSLLIDHVCSRRQFPCYTQQILTEHCNEVWFCKFSNDGTKLATGSKDTTVIIWQVDPDTHLLKLLKTLEGHAYGVSYIAWSPDDNYLVACGPDDCSELWLWNVQTGELRTKMSQSHEDSLTSVAWNPDGKRFVTGGQRGQFYQCDLDGNLLDSWEGVRVQCLWCLSDGKTVLASDTHQRIRGYNFEDLTDRNIVQEDHPIMSFTISKNGRLALLNVATQGVHLWDLQDRVLVRKYQGVTQGFYTIHSCFGGHNEDFIASGSEDHKVYIWHKRSELPIAELTGHTRTVNCVSWNPQIPSMMASASDDGTVRIWGPAPFIDHQNIEEECSSMDS
